# Library screening results

Protein sequences, listed by entry. Tags and fused reporters are not part of them.
UniProt E9BF75, entry or part of it: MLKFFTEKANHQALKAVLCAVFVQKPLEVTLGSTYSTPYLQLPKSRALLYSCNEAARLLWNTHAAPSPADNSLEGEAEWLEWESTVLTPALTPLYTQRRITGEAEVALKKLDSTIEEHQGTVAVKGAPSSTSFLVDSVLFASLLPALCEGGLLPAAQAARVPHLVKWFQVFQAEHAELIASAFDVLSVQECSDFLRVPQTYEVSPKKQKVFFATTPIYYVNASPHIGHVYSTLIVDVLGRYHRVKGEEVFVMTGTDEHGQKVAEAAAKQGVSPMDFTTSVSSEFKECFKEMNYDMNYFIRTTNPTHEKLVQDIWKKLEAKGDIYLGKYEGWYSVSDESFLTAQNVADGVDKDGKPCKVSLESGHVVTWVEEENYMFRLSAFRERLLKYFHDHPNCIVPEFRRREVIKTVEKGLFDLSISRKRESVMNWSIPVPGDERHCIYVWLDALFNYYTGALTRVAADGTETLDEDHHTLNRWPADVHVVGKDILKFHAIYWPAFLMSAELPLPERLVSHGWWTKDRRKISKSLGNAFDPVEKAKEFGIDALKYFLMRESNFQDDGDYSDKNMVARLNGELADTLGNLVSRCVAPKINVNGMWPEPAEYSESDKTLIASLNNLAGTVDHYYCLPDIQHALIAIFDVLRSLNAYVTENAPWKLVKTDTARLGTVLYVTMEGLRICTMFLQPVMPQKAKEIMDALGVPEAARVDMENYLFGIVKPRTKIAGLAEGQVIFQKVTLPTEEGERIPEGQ

Data taken from ChEMBL document CHEMBL3988442, “University of Dundee, Small-Polar-MMV Screening Library” (2021).

Results are percentages, as filed. The controls that fix the scale are not given in the record; negative values are as filed. The compounds are a random part of those screened. A dash means the value is not listed here; it may have been measured.

LdMetRS: 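Methionyl-tRNA synthetase (putative), Leishmania donovani (UniProt E9BF75). Primary screen of methionyl-tRNA synthetase; the read-out is not stated. The test concentration is not given. The values are filed as inhibition. About 68,000 compounds were tested under these conditions; 0.035% (about 24) showed 50% or more at least once.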
Mtb heat-shock: 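Assay on Mycobacterium tuberculosis, filed only as a heat shock assay from Cornell; the read-out is not stated. The concentration is filed as 10 mM, unlikely as a test dose, so the dose is not known. The record gives no direction; compounds that gave an IC50 in retests scored well above the rest, so higher reads as stronger inhibition. Of about 69,000 compounds tested this way, about 930 (1.4%) reached 50% or more in at least one test.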

SMILES,LdMetRS,Mtb heat-shock
CCOCCSc1nnc(-c2cn(CC)nc2OCC)n1C,-2.158%,-16.15%
CCNC(=O)C1CCN(c2cc(-c3ccccc3)nc3cc(C)nn23)C1 (stereo not shown),10%,9.022%
Cn1c(CN2CCN(CC3CCCO3)CC2)nc2ccccc21 (stereo not shown),14.7%,-38.6%
CC(C)=CCN1C[C@@H](C(=O)O)C[C@H](C(=O)Nc2ccc(C)nc2)C1,-2.872%,12.66%
O=c1ncn(-c2ccc(F)cc2)c2ncccc12,8.947%,15.89%
Cc1nc2c(c(C)c1CC(=O)NC(C)c1ccccc1)c(=O)[nH]n2C (stereo not shown),22.98%,15.11%
CCCOC1CCCN(c2ncnc3c2CCN(C(=O)C2CC2)C3)C1 (stereo not shown),15.5%,18.17%
[H][C@@]12CS(=O)(=O)C[C@]1([H])N(C(=O)CN1CCCC1)CCN2Cc1[nH]cnc1C,-,-3.763%
COc1nc2ccn(CCc3cc(O)nc(C)n3)c(=O)c2cc1C#N,1.804%,7.884%
O=C(NS(=O)(=O)c1cc(Cl)ccc1Cl)c1cccc2c1OCCO2,-1.796%,0.2589%
c1cnc(N2CCCC(Cc3nccs3)C2)nc1 (stereo not shown),9.884%,-3.309%
CCC(CC)CN1CCC(n2cc(C3CCCC3)nn2)CC1,16.76%,-25.21%
O=C1CCC(C(=O)Nc2cnn(-c3ccccc3Cl)c2)N1 (stereo not shown),14.93%,9.418%
Cn1nnc2c1C(COCc1ccccn1)CN(C(=O)c1cccs1)C2 (stereo not shown),12.5%,-
Cc1ccc(CN2CCN(CC(=O)Nc3ccc4nsnc4c3)CC2)o1,13.04%,6.923%
CN(C)Cc1nnc2n1CCN(Cc1ccccn1)CC2,9.804%,-10%
COCCN1C(=O)C[C@@H]2[C@H]1CCN2C(=O)c1ccc[nH]1,-3.125%,-
COCCNc1ncc(-c2cc(C)no2)c(-c2ccco2)n1,5.607%,-20.28%
Cc1cccc(CN2C(=O)CC[C@@H]3[C@H]2CCN3Cc2ccc(C)s2)n1,3.833%,-
CC(C)Cc1cc(C(=O)NC(C)(C)c2nnc(N)s2)n(C)n1,8.591%,18.34%
Cc1cc(C(=O)Nc2ccc(N3CCCC3)cn2)ccc1-n1cncn1,13.04%,6.822%
NCCO[C@H]1C[C@@H](O)C12CCN(C(=O)COc1cccc(Cl)c1)CC2,12.75%,-10.47%
c1csc(-c2noc(CN3CCCC3Cn3cccn3)n2)c1 (stereo not shown),21.17%,1.676%
COc1cccc(CN(C)C(=O)CN2CCN(c3nccs3)CC2)c1,16.42%,3.093%
COc1ccccc1OCCNCc1c(C(C)C)nn(C)c1N(C)C,18.42%,16.59%
[H][C@@]12CCN(c3ncccn3)[C@]1([H])CC[C@@H](C(=O)N1CCCO1)O2,-,-21.84%
COC(=O)C(C)CN(C)S(=O)(=O)c1c(Br)cc2[nH]c(=O)oc2c1Cl (stereo not shown),13.42%,11.6%
O=C(CCOCc1ccccc1)N1CCCC1c1noc(C2CC2)n1 (stereo not shown),13.73%,4.423%
CCc1ncncc1C(=O)N1CCOC(c2nc(C)n[nH]2)C1 (stereo not shown),12.5%,1.184%
c1cnc(N2CCOCC3(CN(Cc4cc[nH]n4)CCO3)C2)nc1 (stereo not shown),-4.53%,-
CCOCC(=O)Nc1nccn1Cc1ccccc1Cl,3.922%,94.36%
Cn1ccc2cc(C(=O)NC3CCS(=O)(=O)C3)ccc21 (stereo not shown),14.56%,7.453%
CN(Cc1ccc2c(c1)OCO2)Cc1nc(-c2ccco2)no1,19.93%,16.16%
CCOC(=O)CCNC(=O)N1CCCC(CNC(=O)c2ccco2)C1 (stereo not shown),4.839%,3.751%
Cc1cccc(COc2ccc(C(C)NC(=O)CNC(N)=O)cc2)c1 (stereo not shown),16.51%,-2.263%
Cc1ccc(CN2CCc3[nH]nc(C(=O)N4CCNC(=O)C4)c3C2)s1,8.333%,-
CCN(CC)CCCN1CCC(NC(=O)OC(C)(C)C)CC1,11.08%,9.32%
NC(=O)C1CCN(C(=O)C2SCCc3sccc32)CC1 (stereo not shown),12.64%,-2.972%
Cc1oc(-c2cccc(F)c2F)nc1CN(C)CCO,16.28%,2.49%
COCCN1Cc2ccccc2C2(CCN(S(C)(=O)=O)CC2)C1,9.589%,-9.759%
CCOC(=O)CN(C)Cc1cnc(C)s1,4.478%,13.68%
O=C(c1cc(Cl)c2c(c1)OCO2)N1CCN(c2ncccn2)CC1,1.907%,-22.02%
O=C1CC(c2ccccc2)C2(CCN(C(=O)c3cnccn3)CC2)N1 (stereo not shown),17.46%,-2.723%
O=C(CCNc1ccc(Cl)cn1)NCc1ccncc1,18.47%,13.65%
Cc1cc(C(F)(F)F)nc(CNC(=O)CCn2cccn2)n1,20.32%,11.52%
Cc1nc(CN2CCC(N(C)Cc3nnc(C4CC4)n3C)C2)cs1 (stereo not shown),22.22%,-4.59%
CCc1ccc(S(=O)(=O)NCCC(O)c2ccoc2)s1 (stereo not shown),15.6%,16.98%
COc1ccc(C[C@H]2CN(C3CCOCC3)CC[C@@H]2OCC2CC2)cc1,13.33%,-
O=C(c1cocn1)N1CCC2(CC1)CC(OCC1CC1)CO2 (stereo not shown),3.759%,-1.612%
CCc1nc(CN2CCCN(C(=O)c3cn[nH]c3C)CC2)cs1,9.922%,14.33%
COCCN1C(=O)C2(CCN(CC3CC3)CC2)c2ccccc21.O=C(O)C(F)(F)F,-,22.29%
N#Cc1nccnc1NCCC1CCN(CC(F)(F)F)CC1,11.52%,-31.5%
Cc1ccc2c(c1)OC(C)(C)CC2NC(=O)C1CCN(C)CC1 (stereo not shown),9.722%,2.571%

Once more, the final 7:

With CCc1ccc(S(=O)(=O)NCCC(O)c2ccoc2)s1 (stereo not shown) the screen gave LdMetRS: 15.6%; Mtb heat-shock: 16.98%.
With COc1ccc(C[C@H]2CN(C3CCOCC3)CC[C@@H]2OCC2CC2)cc1 the screen gave LdMetRS: 13.33%.
With O=C(c1cocn1)N1CCC2(CC1)CC(OCC1CC1)CO2 (stereo not shown) the screen gave LdMetRS: 3.759%; Mtb heat-shock: -1.612%.
With CCc1nc(CN2CCCN(C(=O)c3cn[nH]c3C)CC2)cs1 the screen gave LdMetRS: 9.922%; Mtb heat-shock: 14.33%.
With COCCN1C(=O)C2(CCN(CC3CC3)CC2)c2ccccc21.O=C(O)C(F)(F)F the screen gave Mtb heat-shock: 22.29%.
With N#Cc1nccnc1NCCC1CCN(CC(F)(F)F)CC1 the screen gave LdMetRS: 11.52%; Mtb heat-shock: -31.5%.
With Cc1ccc2c(c1)OC(C)(C)CC2NC(=O)C1CCN(C)CC1 (stereo not shown) the screen gave LdMetRS: 9.722%; Mtb heat-shock: 2.571%.